From PubChem BioAssay
Some of the results follow. The main result of the screen is listed elsewhere. These columns were measured beside it and carry no call. Most of these compounds were active or inconclusive in the main read-out, so they are no random draw.

Test: reducers of endogenous Her2 protein level, primary screen, SKBR3 breast tumor cells, AlphaScreen, ATP viability (AID 461);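 also: percent of carrier control wells set as 100% viability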
Conditions: 18-24 h, measured here: SKBR3 viability, ATP luminescence, at 10 µM

Q: Which viability does the source give for `CCOC(=O)N1CCC(n2c(SCC(=O)NCc3ccco3)nc3ccsc3c2=O)CC1` here?
A: The viability was 81%.

Q: For `Cc1ccc(-c2cc(C(F)F)n3ncc(C(=O)N4CCN(c5ccccn5)CC4)c3n2)cc1`, which viability is on record?
A: Its viability is 99.5%.

Q: Which viability does the source give for `CC(C)CCn1c(SCC#N)nc2c(sc3ccccc32)c1=O` here?
A: The viability was 102%.

Q: With `COCCn1c(-c2ccco2)nc2nc3ccccc3nc21` as the compound, how does the viability read?
A: Its viability is 99.5%.

Q: For `Cn1nc(CC(=O)Nc2ccc(N3CCN(C(=O)OC(C)(C)C)CC3)cc2)c2ccccc2c1=O`, which viability is on record?
A: The viability was 84%.

Q: For `CCCCCCCCCCCCCCCC(O)C(N)CO` (stereo unspecified), which viability is on record?
A: Its viability is 60%.

Q: Which viability does the source give for `Cc1ccc2nc(NC(=O)C3CCCN(S(=O)(=O)c4cccc5nonc45)C3)sc2c1` (stereo unspecified) here?
A: The viability was 97.5%.

Q: Which viability does the source give for `CCOCC(=O)Nc1c(C(=O)Nc2ccc(OC)cc2OC)oc2ccccc12` here?
A: Its viability is 65.5%.

Q: For `CCOC(=O)c1cc(-c2ccc(Cl)s2)nc2c1c(C)nn2C`, which viability is on record?
A: Its viability is 66.5%.

Q: Which viability does the source give for `Cc1oc2cc3c(C(=O)OCCN(C)C)c(C)oc3cc2c1C(=O)OCCN(C)C` here?
A: Its viability is 92.5%.

Test: reversal of MRP1-mediated doxorubicin resistance, pilot screen, H69AR cells, doxorubicin co-treatment (AID 601)
Conditions: H69AR cells + 2 uM doxorubicin, CellTiter-Glo, 72 h; measured here: viability with 2 uM doxorubicin; at 10 µM; stronger effect = lower value

Q: With `Fc1ccc(C2C3=C(Nc4ncnn42)c2ccccc2OC3c2ccncc2)cc1` (stereo unspecified) as the compound, how does the viability read?
A: Its viability is 24.6%.

Q: For `CCOC(=O)N1CCC(n2c(SCC(=O)NCc3ccco3)nc3ccsc3c2=O)CC1`, which viability is on record?
A: The viability was 23.3%.

Q: For `COCCn1c(SCC(=O)N2CCc3ccccc32)nc2c(c1=O)SC(C)C2` (stereo unspecified), which viability is on record?
A: Its viability is 42.6%.

Q: For `CCOC(=O)C1CCCN(c2c(Nc3ccc(C)c(C)c3)c(=O)c2=O)C1` (stereo unspecified), which viability is on record?
A: Its viability is 35.1%.

Q: Which viability does the source give for `O=C(C1CCCCC1)N1CCC(c2nc3c(nnn3Cc3ccccc3Cl)c(=O)[nH]2)CC1` here?
A: Its viability is 19.2%.

Q: With `Cc1cccc2cc(CN(Cc3nnnn3Cc3ccco3)C3CCCC3)c3nnnn3c12` as the compound, how does the viability read?
A: The viability was 25.3%.

Q: With `CCCNC(=O)c1cc(-c2ccco2)on1` as the compound, how does the viability read?
A: The viability was 43.5%.

Q: With `CC(C)CC1NC2(C(=O)N(C)c3ccccc32)C2C(=O)N(C(C)C)C(=O)C12` (stereo unspecified) as the compound, how does the viability read?
A: The viability was 59.6%.

Q: With `Cn1c(=O)n(Cc2ccccc2)c(=O)c2c1nc(NCC1CCCO1)n2Cc1ccccc1` (stereo unspecified) as the compound, how does the viability read?
A: Its viability is 26.3%.

Q: With `C=CCSc1nnc2n(-c3ccccc3OC)c(=O)c3c4c(sc3n12)CCC4` as the compound, how does the viability read?
A: Its viability is 28.9%.

Q: Which viability does the source give for `CCOC(=O)c1sc(NC(=O)CSc2nnc(-c3ccco3)n2CC)c(C(=O)OCC)c1C` here?
A: Its viability is 20.2%.

Q: For `C=CCN1C(=O)/C(=C2/Sc3ccccc3N2C)SC1=Nc1c(C)n[nH]c1C`, which viability is on record?
A: The viability was 24%.

Q: Which viability does the source give for `CCOC(=O)c1cc2c(=O)n3ccccc3nc2n(CC2CCCO2)c1=NC(C)=O` (stereo unspecified) here?
A: Its viability is 27.1%.

Q: For `Cc1ccc(Cn2nnc3c(=O)[nH]c(C4CCN(S(=O)(=O)c5ccc(F)cc5)CC4)nc32)cc1`, which viability is on record?
A: The viability was 31.2%.

Q: Which viability does the source give for `CC1CC(C)CN(Cc2nc3c(c(=O)n(C)c(=O)n3C)n2Cc2ccccc2Cl)C1` (stereo unspecified) here?
A: Its viability is 52.2%.

Q: For `CN1CCc2c(sc3c2c(=O)n(-c2ccccc2)c2nnc(SCc4ccc(F)cc4)n32)C1`, which viability is on record?
A: The viability was 34.6%.

Q: Which viability does the source give for `CCN1CCN(c2ncnc3c2cnn3-c2ccc(C)cc2C)CC1` here?
A: Its viability is 19.1%.

Q: For `Cc1ccc(-n2ncc3c(N4CCN(c5ccccc5)CC4)ncnc32)c(C)c1`, which viability is on record?
A: The viability was 25.4%.

Q: For `COc1ccc(C)cc1-n1c(N)c(C#N)c(C#N)c1-c1ccc(OC)c(OC)c1OC`, which viability is on record?
A: The viability was 16.8%.

Q: For `Cn1c(=N)c(S(=O)(=O)c2ccccc2)cc2c(=O)n3ccccc3nc21`, which viability is on record?
A: The viability was 23.9%.

Q: Which viability does the source give for `Cc1ccccc1Cn1c(=O)c2c(nc3n2CCCN3Cc2ccccc2)n(C)c1=O` here?
A: Its viability is 22.2%.

Q: With `Cc1ccc(C)c(N2CCN(C(=O)c3cc4ccccn4n3)CC2)c1` as the compound, how does the viability read?
A: Its viability is 64.9%.

Q: For `O=C(NCCc1ccccc1)c1cc(-c2ccco2)on1`, which viability is on record?
A: Its viability is 46.8%.

Q: Which viability does the source give for `Cc1ccc2oc(=O)c3cnn(CC(=O)N4CCCCC4C)c3c2c1` (stereo unspecified) here?
A: Its viability is 40.7%.

Q: For `Cc1ccc(C2C3CN(C(C)C)CC=C3C(C#N)=C(N)C2(C#N)C#N)cc1` (stereo unspecified), which viability is on record?
A: The viability was 14.3%.

Q: With `CC1(C)Cc2c(C#N)c(SCCC#N)nc(N3CCOCC3)c2CS1` as the compound, how does the viability read?
A: The viability was 26.5%.

Q: For `O=c1[nH]c2ccc(Br)cc2c(-c2ccccc2)c1N1CCOCC1`, which viability is on record?
A: Its viability is 17.1%.

Q: With `O=C(COc1ccccc1)N1CCN(c2ncnc3c2cnn3-c2ccccc2)CC1` as the compound, how does the viability read?
A: Its viability is 33.5%.

Same assay, conditions: H69AR cells, CellTiter-Glo, 72 h; compound alone cytotoxicity; at 10 µM

Q: With `Fc1ccc(C2C3=C(Nc4ncnn42)c2ccccc2OC3c2ccncc2)cc1` (stereo unspecified) as the compound, how does the viability read?
A: The viability was 78.8%.

Q: With `CCOC(=O)N1CCC(n2c(SCC(=O)NCc3ccco3)nc3ccsc3c2=O)CC1` as the compound, how does the viability read?
A: The viability was 78.5%.

Q: With `COCCn1c(SCC(=O)N2CCc3ccccc32)nc2c(c1=O)SC(C)C2` (stereo unspecified) as the compound, how does the viability read?
A: Its viability is 78.8%.

Q: Which viability does the source give for `CCOC(=O)C1CCCN(c2c(Nc3ccc(C)c(C)c3)c(=O)c2=O)C1` (stereo unspecified) here?
A: The viability was 87.6%.

Q: For `O=C(C1CCCCC1)N1CCC(c2nc3c(nnn3Cc3ccccc3Cl)c(=O)[nH]2)CC1`, which viability is on record?
A: The viability was 73.9%.

Q: For `Cc1cccc2cc(CN(Cc3nnnn3Cc3ccco3)C3CCCC3)c3nnnn3c12`, which viability is on record?
A: Its viability is 85.6%.

Q: Which viability does the source give for `CCCNC(=O)c1cc(-c2ccco2)on1` here?
A: Its viability is 97.4%.

Q: For `CC(C)CC1NC2(C(=O)N(C)c3ccccc32)C2C(=O)N(C(C)C)C(=O)C12` (stereo unspecified), which viability is on record?
A: Its viability is 99.1%.

Q: Which viability does the source give for `Cn1c(=O)n(Cc2ccccc2)c(=O)c2c1nc(NCC1CCCO1)n2Cc1ccccc1` (stereo unspecified) here?
A: Its viability is 73.3%.

Q: With `C=CCSc1nnc2n(-c3ccccc3OC)c(=O)c3c4c(sc3n12)CCC4` as the compound, how does the viability read?
A: The viability was 89.1%.

Q: With `CCOC(=O)c1sc(NC(=O)CSc2nnc(-c3ccco3)n2CC)c(C(=O)OCC)c1C` as the compound, how does the viability read?
A: Its viability is 74.2%.

Q: With `C=CCN1C(=O)/C(=C2/Sc3ccccc3N2C)SC1=Nc1c(C)n[nH]c1C` as the compound, how does the viability read?
A: Its viability is 75.5%.

Q: For `CCOC(=O)c1cc2c(=O)n3ccccc3nc2n(CC2CCCO2)c1=NC(C)=O` (stereo unspecified), which viability is on record?
A: Its viability is 81.1%.

Q: With `Cc1ccc(Cn2nnc3c(=O)[nH]c(C4CCN(S(=O)(=O)c5ccc(F)cc5)CC4)nc32)cc1` as the compound, how does the viability read?
A: The viability was 86.2%.

Q: With `CC1CC(C)CN(Cc2nc3c(c(=O)n(C)c(=O)n3C)n2Cc2ccccc2Cl)C1` (stereo unspecified) as the compound, how does the viability read?
A: The viability was 89.5%.

Q: Which viability does the source give for `CN1CCc2c(sc3c2c(=O)n(-c2ccccc2)c2nnc(SCc4ccc(F)cc4)n32)C1` here?
A: Its viability is 102%.

Q: With `CCN1CCN(c2ncnc3c2cnn3-c2ccc(C)cc2C)CC1` as the compound, how does the viability read?
A: Its viability is 73.7%.

Q: For `Cc1ccc(-n2ncc3c(N4CCN(c5ccccc5)CC4)ncnc32)c(C)c1`, which viability is on record?
A: The viability was 80.3%.

Q: For `COc1ccc(C)cc1-n1c(N)c(C#N)c(C#N)c1-c1ccc(OC)c(OC)c1OC`, which viability is on record?
A: The viability was 72.9%.

Q: With `Cn1c(=N)c(S(=O)(=O)c2ccccc2)cc2c(=O)n3ccccc3nc21` as the compound, how does the viability read?
A: Its viability is 75%.

Q: With `Cc1ccccc1Cn1c(=O)c2c(nc3n2CCCN3Cc2ccccc2)n(C)c1=O` as the compound, how does the viability read?
A: The viability was 78.5%.

Q: For `Cc1ccc(C)c(N2CCN(C(=O)c3cc4ccccn4n3)CC2)c1`, which viability is on record?
A: The viability was 99.8%.

Q: With `O=C(NCCc1ccccc1)c1cc(-c2ccco2)on1` as the compound, how does the viability read?
A: Its viability is 88.6%.

Q: Which viability does the source give for `Cc1ccc2oc(=O)c3cnn(CC(=O)N4CCCCC4C)c3c2c1` (stereo unspecified) here?
A: Its viability is 89.2%.

Q: With `Cc1ccc(C2C3CN(C(C)C)CC=C3C(C#N)=C(N)C2(C#N)C#N)cc1` (stereo unspecified) as the compound, how does the viability read?
A: Its viability is 62%.

Q: Which viability does the source give for `CC1(C)Cc2c(C#N)c(SCCC#N)nc(N3CCOCC3)c2CS1` here?
A: The viability was 84.2%.

Q: For `O=c1[nH]c2ccc(Br)cc2c(-c2ccccc2)c1N1CCOCC1`, which viability is on record?
A: Its viability is 75.7%.

Q: For `O=C(COc1ccccc1)N1CCN(c2ncnc3c2cnn3-c2ccccc2)CC1`, which viability is on record?
A: Its viability is 74.8%.
